Reference: patent US20030180892A1
Results are given in words; binding and its absence hold for the method and conditions named. A result given as binding can be weak or reduced; the word gives no strength.

What was measured:
[1] = target: IL-17-like receptor (on the BIAcore surface); test: BIAcore (SPR), dialyzed HS50 fractions
[2] = target: IL-17-like receptor (on the BIAcore surface); test: BIAcore (SPR)

B1: IL-20 polypeptide expressed in CHO cells (conditioned culture supernatants of clones 10, 16 and 22; HS50 cation-exchange fractions; CHO cell IL-20 preparations) (ligand)
chain: RSPKSKRKGQGRPGPLAPGPHQVPLDLVSRMKPYARMEEYERNIEEMVAQLRNSSELAQRKCEVNLQLWMSNKRSLSPWGYSINHDPSRIPVDLPEARCLCLGCVNPFTMQEDRSMVSVPVFSQVPVRRRLCPPPPRTGPCRQRAVMETIAVGCTCIF
modifications: glycosylated; single N-glycosylation site at residue 75 (FIG. 1 numbering)
binding [1]: binds | binding [2]: binds
